These are yes or no findings as the source states them, for the method shown. Binding seen in cells or lysates may run through a third protein. For part of these data: Binding can be weak; no strength is given.

Amino acid sequences for entries named in this document (tags omitted). A change or cut given only in a name is not applied to a line headed by its entry.
UniProt Q9LP53: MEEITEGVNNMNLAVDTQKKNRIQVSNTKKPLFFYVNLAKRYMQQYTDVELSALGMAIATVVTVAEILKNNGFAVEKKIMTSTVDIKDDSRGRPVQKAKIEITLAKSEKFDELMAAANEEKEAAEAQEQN

Common to all, as to assay: co-IP; mCherry immunoprecipitation from 9- or 10-day-old seedlings expressing ECT2-mCherry variants (three independent lines pooled), immunoblot with mCherry- and ALBA1-specific antibodies
The target in experiment [1] is ECT2^ΔN8-mCherry (Arabidopsis thaliana) (UniProt Q9LJE5).
In experiment [2] the target is T1, ECT2^WT-mCherry (Arabidopsis thaliana) (UniProt Q9LJE5).
T1 sequence: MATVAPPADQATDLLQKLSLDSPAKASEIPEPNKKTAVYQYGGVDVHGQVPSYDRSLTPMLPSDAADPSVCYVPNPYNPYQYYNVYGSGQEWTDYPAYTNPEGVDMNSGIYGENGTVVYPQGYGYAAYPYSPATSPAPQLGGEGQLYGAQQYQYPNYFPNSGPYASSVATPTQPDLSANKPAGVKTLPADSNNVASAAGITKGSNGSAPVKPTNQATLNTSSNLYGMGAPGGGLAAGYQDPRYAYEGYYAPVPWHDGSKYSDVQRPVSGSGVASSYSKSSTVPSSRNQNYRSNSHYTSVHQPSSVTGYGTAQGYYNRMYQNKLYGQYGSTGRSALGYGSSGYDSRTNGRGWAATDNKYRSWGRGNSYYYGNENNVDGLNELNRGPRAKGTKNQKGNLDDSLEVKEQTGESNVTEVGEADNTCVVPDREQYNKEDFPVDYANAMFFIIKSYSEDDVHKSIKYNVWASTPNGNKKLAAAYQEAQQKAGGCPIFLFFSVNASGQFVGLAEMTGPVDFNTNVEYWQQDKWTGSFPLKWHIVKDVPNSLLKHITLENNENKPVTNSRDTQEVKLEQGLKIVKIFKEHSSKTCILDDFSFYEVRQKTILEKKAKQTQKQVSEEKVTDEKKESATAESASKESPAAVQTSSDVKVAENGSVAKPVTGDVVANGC

In experiment [3] the target is ECT2^ΔN.2-mCherry (Arabidopsis thaliana) (UniProt Q9LJE5).

On to ALBA1 (from UniProt Q9LP53), for which the binding entry is given as “binds” in experiment [1], “binds” in experiment [2] and “no binding” in experiment [3].

The values are drawn from paper PMC11649824.
